# Assay results published in the supplement of paper PMC12823440, “Inhibitors supercharge kinase turnover through native proteolytic circuits” (Nature, 2025).
# Where a name gives a salt, the structure may show the parent alone. This is one part of the list. Hit calls seldom repeat between salt and free forms of one compound.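 Kinases were expressed as nanoluciferase fusions in K562 cells and luminescence was read every 4 h between 2 and 18 h as percent of control, DMSO set to 100% and a positive control to 0%. A time point counts as decreased when the signal drops significantly (2 sigma). The hit call is the authors' own, does not follow from the count of time points alone, and its rule is not shown.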
# Molecular target: RAF1_S257L (clone: RAF1_mut) (UniProt P04049)
# Experiment: number of time points (of 5) at which kinase-Nluc abundance scored as decreased, DMSO-normalised (count); higher = more persistent destabilization
# Details: K562; 2-18 h
row,SMILES,number of time points
1,C[C@@H](c1ccc2nccn2c1)n1nnc2ncc(-c3cnn(C)c3)nc21 [Savolitinib] (10 µM),0
2,CN1C(=O)C(Cc2c[nH]c3ccccc23)NC1=S (stereo not drawn) [Necrostatin-1] (10 µM),0
3,C[C@@H]1C(=O)O[C@H](C)[C@H]1C[C@@H](O)[C@](C)(O)[C@H]1CC[C@@]2(O)C3=CC(=O)[C@@H]4C[C@@H](O)[C@@H](O)C[C@]4(C)[C@H]3CC[C@]12C [Cyasterone] (10 µM),0
4,CC(c1ccc(-c2cnc3c(-c4ccc(S(N)(=O)=O)c5ccccc45)cnn3c2)cc1)N1CCCC1 (stereo not drawn) (2.5 µM),0
5,CCn1c(=O)c(-c2ccc(-c3cncc(C)n3)cc2Cl)cc2cnc(NCCC3CCN(C)CC3)nc21 (10 µM),0
6,"O=C(O)c1cc(O)ccc1O [2,5-Dihydroxybenzoic acid] (10 µM)",0
7,CC(=NNC(=O)c1ccc(C)c(Br)c1)c1ccc(O)cc1O [mTOR inhibitor-1] (2.5 µM),0
8,Nc1ncnc2c1ncn2[C@@H]1O[C@H](CO)C[C@H]1O [Cordycepin] (10 µM),0
9,C=CC(=O)Nc1cc2c(Nc3ccc(OCc4ccccn4)c(Cl)c3)ncnc2cc1OCCN1CCOCC1 (10 µM),0
10,Cc1ccc(S(=O)(=O)Nc2ccccc2C=Nc2ccccc2NS(=O)(=O)c2ccc(C)cc2)cc1 (10 µM),0
11,CCOc1cc(C(=O)N2CCC(N3CCN(C)CC3)CC2)ccc1Nc1ncc2c(n1)N(C1CCCC1)c1ccccc1C(=O)N2C (10 µM),0
12,Cn1cnc(-c2cc3nccc(Oc4ccc(NC(=S)NC(=O)Cc5ccccc5)cc4F)c3s2)c1 [MGCD-265 analog] (10 µM),0
13,Cn1c(=O)c(F)c(Nc2ccc(I)cc2F)c2c(=O)n(C[C@@H](O)CO)cnc21 (10 µM),0
14,Nc1ncnc2c1c(-c1ccc(Oc3ccccc3)cc1)nn2C1CCNCC1 [N-piperidine Ibrutinib (hydrochloride)] (10 µM),0
15,Cc1csc(-c2nnc(Nc3ccc(Oc4ncccc4-c4ccnc(N)n4)cc3)c3ccccc23)c1 (2.5 µM),0
16,O=C(O)CCc1ccc(O)c(O)c1 [Dihydrocaffeic acid] (10 µM),0
17,COCCOc1cnc(Sc2cc(C)c(-c3csc(NC(=O)c4ccncc4)n3)c(C)c2)cn1 [T-1101 (tosylate)] (2.5 µM),0
18,Cc1cc(NC(=O)c2cccc(NC(=O)/C=C/CN(C)C)c2)ccc1Nc1nccc(-c2cccnc2)n1 (10 µM),0
19,Cc1c(NC(=O)OC[C@@H]2COCCN2)cn2ncnc(Nc3ccc4c(cnn4Cc4cccc(F)c4)c3)c12 (10 µM),0

# Individual results from the entries so far.
# For number of time points, `O=C(O)c1cc(O)ccc1O` [2,5-Dihydroxybenzoic acid] (10 µM) is entered as 0
# For number of time points, `C[C@@H](c1ccc2nccn2c1)n1nnc2ncc(-c3cnn(C)c3)nc21` [Savolitinib] (10 µM) is entered as 0

# Following part:

row,SMILES,number of time points
1,Cc1ccc(-c2c(C(=O)CF)n(CCCO)c3ncnc(N)c23)cc1 (10 µM),0
2,Cc1ccc(-c2c(C(=O)CCl)n(CCCO)c3ncnc(N)c23)cc1 (10 µM),0
3,COc1cc(F)c(F)c(Nc2ccc(I)cc2F)c1NS(=O)(=O)C1(C[C@H](O)CO)CC1 [Refametinib] (10 µM),1
4,CCN(CC)c1ccc2cc(C(=O)N3CCN(C(=O)C4=Cc5c(Br)cccc5S4(=O)=O)CC3)c(=O)oc2c1 (2 µM),0
5,COc1ccc(C(=C2C(=O)Nc3ccccc32)c2ccc(OC)cc2)cc1 (10 µM),1
6,N#Cc1ccc2ncnc(NC3CCC(N4CCOCC4)CC3)c2c1 (stereo not drawn) (10 µM),0
7,NCCN1CCN(C/C=C/C(=O)N2CCC[C@@H](n3nc(-c4ccc(Oc5ccccc5)cc4)c4c(N)ncnc43)C2)CC1 [Ibrutinib-MPEA] (10 µM),0
8,CN(CC(=O)N(Cc1ccc(C2CCCCC2)cc1)c1ccc(C(=O)O)cc1)S(=O)(=O)c1c(F)c(F)c(F)c(F)c1F (2.5 µM),0
9,CCn1c(C(=O)N(C2CC2)C2CC2)cc2c3c(ncn3C)c(Nc3cc(C)n(C)n3)nc21 (10 µM),0
10,CC(C)CN(CC(=O)N1CCN(CC(OCc2ccc3ccccc3c2)c2ccc(Cl)cc2Cl)CC1)CC(C)C (stereo not drawn) [LYN-1604 (dihydrochloride)] (2.5 µM),0
11,COc1ccc2[nH]cc(/C=C3\C(=O)Nc4ccc(NC(=O)CCN5CCCCC5)cc43)c2c1 (2.5 µM),0
12,CC(C)=CC(=O)CCC(=O)N1CCN(Cc2cc3nc(-c4cccc5[nH]ncc45)nc(N4CCOCC4)c3s2)CC1 (10 µM),0
13,O=C(NCCO)c1ccc2c(c1)nc(Nc1cccc(Cl)c1)c1ccncc12 [CK2 inhibitor 2] (10 µM),0
14,COc1ccc(CC(=O)Nc2nc3c(s2)CCc2ccccc2-3)cc1OC (10 µM),0
15,c1cc2c(cc1O[C@H]1OC[C@H]3[C@@H]1CO[C@@H]3c1ccc3c(c1)OCO3)OCO2 [Sesamolin] (10 µM),0
16,OCCNC1CCCc2c1[nH]c1ccc(-c3ccccc3)cc21 (stereo not drawn) (2.5 µM),0
17,CNc1nc(Nc2cnn(C3CCN(C4COC4)CC3F)c2Cl)ncc1C(F)(F)F (stereo not drawn) (10 µM),0
18,Cc1cc2cc(Nc3ccnc(Nc4ccc5[nH]c(C)cc5c4)n3)ccc2[nH]1 (2.5 µM),0
19,CC(C)(C)NC(=O)c1cncn1C1CCN(c2ccc(-c3nnc(C(F)(F)F)o3)cn2)CC1 (10 µM),0
